Results are given in words; binding and its absence hold for the method and conditions named. In cells and extracts the contact can be indirect. Some binding calls cover weakened binding; strength is not graded here.
Key:
[1] = biological target: T1, SGT1 (a suppressor of the G2 allele of SKP1) (mouse (endogenous in primary peritoneal macrophages and RAW264.7)) (UniProt Q9CX34); experiment: co-IP; endogenous proteins; anti-NLRP3, anti-SGT1 or rabbit IgG on Protein A/G Mix Magnetic Beads, 150 µg of protein sample, overnight at 4°C, washed with PBST; LPS+ATP-induced RAW264.7 cells (with or without HSF1 overexpression) and primary peritoneal macrophages (HSF1+/+ and HSF1-/-)
T1 sequence: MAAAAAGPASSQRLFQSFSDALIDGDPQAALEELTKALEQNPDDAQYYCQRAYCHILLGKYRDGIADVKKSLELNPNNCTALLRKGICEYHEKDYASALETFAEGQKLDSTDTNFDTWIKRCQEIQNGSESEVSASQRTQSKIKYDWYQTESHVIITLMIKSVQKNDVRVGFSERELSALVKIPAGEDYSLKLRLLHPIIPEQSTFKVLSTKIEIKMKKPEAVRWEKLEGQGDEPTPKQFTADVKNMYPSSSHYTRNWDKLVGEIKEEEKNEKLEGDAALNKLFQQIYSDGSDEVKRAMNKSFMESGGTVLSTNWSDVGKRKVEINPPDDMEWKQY

Amino acid sequences for entries named in this document (tags omitted).
UniProt Q8R4B8: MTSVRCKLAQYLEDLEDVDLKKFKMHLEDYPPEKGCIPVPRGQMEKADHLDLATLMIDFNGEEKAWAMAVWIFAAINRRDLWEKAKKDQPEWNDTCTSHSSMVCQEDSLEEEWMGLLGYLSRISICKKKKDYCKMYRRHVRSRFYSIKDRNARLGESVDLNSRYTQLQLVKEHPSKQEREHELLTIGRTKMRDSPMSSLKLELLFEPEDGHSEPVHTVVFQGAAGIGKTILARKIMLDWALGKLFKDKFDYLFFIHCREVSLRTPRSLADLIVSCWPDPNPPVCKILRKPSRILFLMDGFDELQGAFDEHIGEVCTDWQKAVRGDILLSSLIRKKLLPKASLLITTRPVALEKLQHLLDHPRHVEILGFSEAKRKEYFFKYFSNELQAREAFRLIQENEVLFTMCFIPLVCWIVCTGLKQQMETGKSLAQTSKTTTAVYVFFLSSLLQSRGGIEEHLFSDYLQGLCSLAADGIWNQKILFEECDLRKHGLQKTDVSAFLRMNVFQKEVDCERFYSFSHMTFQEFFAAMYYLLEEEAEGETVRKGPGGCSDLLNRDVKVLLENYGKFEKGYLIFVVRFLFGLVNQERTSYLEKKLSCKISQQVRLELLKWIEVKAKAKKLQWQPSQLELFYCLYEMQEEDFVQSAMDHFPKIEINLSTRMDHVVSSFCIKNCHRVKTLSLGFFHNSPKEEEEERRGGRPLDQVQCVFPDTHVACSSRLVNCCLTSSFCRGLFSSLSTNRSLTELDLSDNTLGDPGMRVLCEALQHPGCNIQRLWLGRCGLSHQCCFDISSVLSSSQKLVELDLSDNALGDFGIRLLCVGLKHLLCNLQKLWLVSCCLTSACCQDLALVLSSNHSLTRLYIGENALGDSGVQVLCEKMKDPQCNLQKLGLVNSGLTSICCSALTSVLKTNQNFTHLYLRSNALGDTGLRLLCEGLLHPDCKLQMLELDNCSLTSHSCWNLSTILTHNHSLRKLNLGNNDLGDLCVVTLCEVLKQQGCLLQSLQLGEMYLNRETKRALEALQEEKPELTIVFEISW

[2] = biological target: NOD-like receptor (NLR)-family pyrin domain-containing 3 (NLRP3) (mouse (endogenous in primary peritoneal macrophages and RAW264.7)) (UniProt Q8R4B8); experiment: as above

NOD-like receptor (NLR)-family pyrin domain-containing 3 (NLRP3) (from UniProt Q8R4B8 1-1033)
binding [1]: binds

B1: SGT1 (a suppressor of the G2 allele of SKP1) (protein, UniProt Q9CX34 1-336)
chain: MAAAAAGPASSQRLFQSFSDALIDGDPQAALEELTKALEQNPDDAQYYCQRAYCHILLGKYRDGIADVKKSLELNPNNCTALLRKGICEYHEKDYASALETFAEGQKLDSTDTNFDTWIKRCQEIQNGSESEVSASQRTQSKIKYDWYQTESHVIITLMIKSVQKNDVRVGFSERELSALVKIPAGEDYSLKLRLLHPIIPEQSTFKVLSTKIEIKMKKPEAVRWEKLEGQGDEPTPKQFTADVKNMYPSSSHYTRNWDKLVGEIKEEEKNEKLEGDAALNKLFQQIYSDGSDEVKRAMNKSFMESGGTVLSTNWSDVGKRKVEINPPDDMEWKQY
binding [2]: binds

Reference: article PMC9199371
